In PMC10941682:
These are yes or no findings as the source states them, for the method shown. Binding seen in cells or lysates may run through a third protein. These calls come from enrichment with a bait or labelling near it, and not all partners need be listed.

By UniProt entry, the sequences of proteins in these tests, tags left out.
UniProt Q8WV24: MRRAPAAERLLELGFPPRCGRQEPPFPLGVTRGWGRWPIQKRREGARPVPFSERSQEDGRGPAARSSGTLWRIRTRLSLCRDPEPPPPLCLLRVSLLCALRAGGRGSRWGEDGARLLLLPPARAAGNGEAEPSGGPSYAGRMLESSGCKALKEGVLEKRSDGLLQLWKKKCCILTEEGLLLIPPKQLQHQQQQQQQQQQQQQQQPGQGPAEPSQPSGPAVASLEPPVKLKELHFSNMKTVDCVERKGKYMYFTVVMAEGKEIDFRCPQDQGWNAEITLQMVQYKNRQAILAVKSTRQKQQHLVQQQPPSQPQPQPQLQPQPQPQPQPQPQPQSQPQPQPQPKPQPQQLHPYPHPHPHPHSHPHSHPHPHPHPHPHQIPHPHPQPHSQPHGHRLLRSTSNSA

B1: DDB1- and CUL4-associated factor 7 (protein, UniProt P61962 1-342)
chain: MSLHGKRKEIYKYEAPWTVYAMNWSVRPDKRFRLALGSFVEEYNNKVQLVGLDEESSEFICRNTFDHPYPTTKLMWIPDTKGVYPDLLATSGDYLRVWRVGETETRLECLLNNNKNSDFCAPLTSFDWNEVDPYLLGTSSIDTTCTIWGLETGQVLGRVNLVSGHVKTQLIAHDKEVYDIAFSRAGGGRDMFASVGADGSVRMFDLRHLEHSTIIYEDPQHHPLLRLCWNKQDPNYLATMAMDGMEVVILDVRVPCTPVARLNNHRACVNGIAWAPHSSCHICTAADDHQALIWDIQQMPRAIEDPILAYTAEGEINNVQWASTQPDWIAICYNNCLEILRV
B2: autism susceptibility gene 2 protein (protein, UniProt Q8WXX7 1-1259)
chain: MDGPTRGHGLRKKRRSRSQRDRERRSRGGLGAGAAGGGGAGRTRALSLASSSGSDKEDNGKPPSSAPSRPRPPRRKRRESTSAEEDIIDGFAMTSFVTFEALEKDVALKPQERVEKRQTPLTKKKREALTNGLSFHSKKSRLSHPHHYSSDRENDRNLCQHLGKRKKMPKALRQLKPGQNSCRDSDSESASGESKGFHRSSSRERLSDSSAPSSLGTGYFCDSDSDQEEKASDASSEKLFNTVIVNKDPELGVGTLPEHDSQDAGPIVPKISGLERSQEKSQDCCKEPIFEPVVLKDPCPQVAQPIPQPQTEPQLRAPSPDPDLVQRTEAPPQPPPLSTQPPQGPPEAQLQPAPQPQVQRPPRPQSPTQLLHQNLPPVQAHPSAQSLSQPLSAYNSSSLSLNSLSSSRSSTPAKTQPAPPHISHHPSASPFPLSLPNHSPLHSFTPTLQPPAHSHHPNMFAPPTALPPPPPLTSGSLQVAGHPAGSTYSEQDILRQELNTRFLASQSADRGASLGPPPYLRTEFHQHQHQHQHTHQHTHQHTFTPFPHAIPPTAIMPTPAPPMFDKYPTKVDPFYRHSLFHSYPPAVSGIPPMIPPTGPFGSLQGAFQPKTSNPIDVAARPGTVPHTLLQKDPRLTDPFRPMLRKPGKWCAMHVHIAWQIYHHQQKVKKQMQSDPHKLDFGLKPEFLSRPPGPSLFGAIHHPHDLARPSTLFSAAGAAHPTGTPFGPPPHHSNFLNPAAHLEPFNRPSTFTGLAAVGGNAFGGLGNPSVTPNSMFGHKDGPSVQNFSNPHEPWNRLHRTPPSFPTPPPWLKPGELERSASAAAHDRDRDVDKRDSSVSKDDKERESVEKRHSSHPSPAPVLPVNALGHTRSSTEQIRAHLNTEAREKDKPKERERDHSESRKDLAADEHKAKEGHLPEKDGHGHEGRAAGEEAKQLARVPSPYVRTPVVESARPNSTSSREAEPRKGEPAYENPKKSSEVKVKEERKEDHDLPPEAPQTHRASEPPPPNSSSSVHPGPLASMPMTVGVTGIHPMNSISSLDRTRMMTPFMGISPLPGGERFPYPSFHWDPIRDPLRDPYRELDIHRRDPLGRDFLLRNDPLHRLSTPRLYEADRSFRDREPHDYSHHHHHHHHPLSVDPRREHERGGHLDERERLHMLREDYEHTRLHSVHPASLDGHLPHPSLITPGLPSMHYPRISPTAGNQNGLLNKTPPTAALSAPPPLISTLGGRPVSPRRTTPLSAEIRERPPSHTLKDIEAR

Biological target: pleckstrin homology-like domain family A member 1 (human (endogenous in IMR-32)) (UniProt Q8WV24)
Assay: affinity purification with mass spectrometry; endogenous PHLDA1 precipitated with mouse anti-PHLDA1 (sc-23866) on Dynabeads Protein G from pre-cleared lysates of PBS- or ch14.18/CHO-treated IMR-32 cells (50 mM Tris-HCl pH 7.6, 150 mM NaCl, 0.5% NP-40), overnight at 4°C; isotype IgG2a control; on-bead trypsin digest, LC-MS, semi-quantitative sample/control ratio

| Binder | binding |
| --- | --- |
| B1 | binds |
| B2 | binds |
